Data reported in PubChem BioAssay AID485298 (National Center for Advancing Translational Sciences (NCATS), 2010).
Screen size: about 320,000 compounds; about 740 (0.23%) were called active. This list was built around the results that the source calls inconclusive (neither active nor inactive); the mix of calls is not that of the screen. The call rests on the fitted dose curve; in most records, active means well fitted activation curve with a large enough effect; inconclusive means small, poorly fitted or top-dose-only effect; inactive means no such curve, though single readings can be large or run the other way. Potencies of inconclusive entries are doubtful fits and often do not repeat.

assay: qHTS Assay for Small Molecule Inhibitors of Mitochondrial Division or Activators of Mitochondrial Fusion; further: nearly all actives have a fitted effect of over 45% in size; on growth rescue (activation): % of control where 0% means no effect; details: S. cerevisiae fusion-defective mutant growth rescue, CellTiterGlo 48 h; growth rescue (activation): at 46.1 µM (top of the series) unless noted
Summary of the method: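 S. cerevisiae fusion-defective temperature-sensitive mutants (e.g. fzo1-1, mgm1-5) grown 48 h at 37C in YPEG (ethanol/glycerol non-fermentable) medium with 23 nl compound per well; growth rescue read as CellTiterGlo luminescence.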
Potency means the concentration at half of the fitted maximal effect.

SMILES	Potency	growth rescue (activation)
CC(C)(C)OC(=O)N/N=C\c1ccc[nH]1	inconclusive: 3.16 µM [activator, single point]	
COc1cc(N(Cc2ccccc2)Cc2ccccc2)c2ncn(C(C)C)c2c1	inconclusive: 12.6 µM [activator, single point]	
Cc1ccc(/C=N/NC(=O)c2csc3c2CCCC3)cc1		inactive: -0.323%
Cc1ccc(C(=O)N2CCN3C(=O)c4ccccc4C23c2ccc(Cl)cc2)cc1 (stereo not given)	inconclusive: 22.4 µM [activator, single point]	
COc1ccc(/C=C2\C(=N)N3N=C(CC(=O)N4CCCCC4)SC3=NC2=O)cc1		inactive: -4.51%
Cc1noc(C)c1CSc1nc2ccccc2c(=O)n1-c1ccc(F)cc1F	inconclusive: 8.91 µM [activator, partial curve]	
CCc1ccc(OC)c(-c2csc(N)n2)c1	inconclusive: 11.2 µM [activator, partial curve]	
O=C1C=C(c2cnc3ccccc3c2)C[C@@H](c2ccc3c(c2)OCO3)C1	inconclusive: 25.1 µM [activator, single point]	
COc1ccccc1NS(=O)(=O)c1ccc(Cl)c(NC(=O)c2sc3cc(Cl)ccc3c2Cl)c1	inconclusive: 22.4 µM [activator, single point]	
Cc1ccc2c(=O)cc(C(=O)NCc3ccccc3)oc2c1C	active: 12.6 µM	
O=C(COc1ccc2ccccc2c1Br)N1CCN(c2ccccn2)CC1	inconclusive: 25.1 µM [activator, single point]	
CC(C)(C)c1ccc(OCC(=O)Nc2ccc(-c3nc4cccnc4o3)cc2)cc1		inactive: 3.8%
COc1ccccc1N1CCN(C2CCN(C(=O)c3ccc(F)cc3)CC2)CC1	inconclusive: 5.62 µM [activator, single point]	
COc1cc(N=c2c([N+](=O)[O-])nn(-c3ccc4c(c3)OCCO4)n2O)cc(OC)c1	inconclusive: 17.8 µM [activator, single point]	
O=C(CNc1ccc(Cl)cc1)c1ccc(Br)cc1	inconclusive: 25.1 µM [activator, single point]	
CC(C(=O)NCc1ccc(Cl)cc1)n1cccc1C(=O)c1ccccc1 (stereo not given)	inconclusive: 35.5 µM [activator, partial curve, poor fit]	
Cc1cc(Cl)ccc1C1=CC(=O)C[C@H](c2ccc(F)cc2)C1	inconclusive: 10 µM [activator, single point]	
O=S(=O)(NC1CCCCCC1)c1ccc(Br)s1	inconclusive: 15.8 µM [activator, single point]	
Cn1nc(C(C)(C)C)c([N+](=O)[O-])c1C(=O)N1CCCCCC1	inconclusive: 10 µM [activator, partial curve]	
CC(C)C[C@H](N)c1nnc(SCc2ccc(Cl)cc2)o1		inactive: 3.02%
Cc1nc(-c2ccc(S(=O)(=O)Nc3ccc(Br)cc3Cl)s2)cs1	inconclusive: 14.1 µM [activator, partial curve]	
C#CCOc1nc(Nc2cccc([N+](=O)[O-])c2)nc(OCC#C)n1	inconclusive: 11.2 µM [activator, partial curve]	
COc1ccc(Nc2nc(N)nc(CN3CCc4ccccc4C3)n2)cc1		inactive: 2.78%

Structural class: the compounds so far containing two or more sulfur atoms
SMILES	Potency	growth rescue (activation)
COc1ccccc1NS(=O)(=O)c1ccc(Cl)c(NC(=O)c2sc3cc(Cl)ccc3c2Cl)c1	inconclusive: 22.4 µM [activator, single point]	
O=S(=O)(NC1CCCCCC1)c1ccc(Br)s1	inconclusive: 15.8 µM [activator, single point]	
Cc1nc(-c2ccc(S(=O)(=O)Nc3ccc(Br)cc3Cl)s2)cs1	inconclusive: 14.1 µM [activator, partial curve]	

Further entries follow:

SMILES	Potency	growth rescue (activation)
O=C(Nc1ccc2c(c1)nc1n2CCN(Cc2ccccc2)C1)c1cccs1		inactive: -3.31%
O=C(N/N=C/c1ccc(N2CCOCC2)cc1)c1ccncc1		inactive: 2.1%
COc1ccc(/C(N)=N/OC(=O)CSc2ccccc2)cc1OC		inactive: 7.95%
CCCC(=O)N(c1ccc2oc(=O)sc2c1)S(=O)(=O)c1ccccc1	inconclusive: 3.16 µM [activator, single point]	
Cc1ccccc1NC(=O)c1sc(Cl)nc1-c1ccccc1	inconclusive: 17.8 µM [activator, partial curve]	
CCOc1ccccc1N1CCN(S(=O)(=O)c2ccc3c4c(cccc24)C(=O)N3)CC1	inconclusive: 22.4 µM [activator, single point]	
O=C(COc1cccc(OC(F)F)c1)Nc1ccc(SC(F)F)cc1		inactive: -3.29%
O=C(c1ccccn1)N1N=C2/C(=C/c3ccccc3)CCCC2C1c1ccccc1 (stereo not given)	inconclusive: 17.8 µM [activator, single point]	
CCSC1=C(C#N)C(c2ccccc2OC)CC(=O)N1 (stereo not given)		inactive: -0.146%
O=C(NCc1ccc2c(c1)OCO2)c1ccc(-c2ccc(Cl)cc2)o1	inconclusive: 12.6 µM [activator, partial curve]	
Cc1cc(C)c(C)c(S(=O)(=O)N2CCN(c3ccc(O)cc3)CC2)c1C	inconclusive: 35.5 µM [activator, single point]	
COc1ccc([C@H]2CC(=O)C=C(c3cc(Cl)ccc3C)C2)cc1	inconclusive: 12.6 µM [activator, single point]	
O=S1(=O)N=C(Nc2nc3c(s2)CCCC3)c2ccccc21		inactive: 0.402%
CCc1nc2ccccc2c(C(=O)OCc2nnc(-c3ccccc3)o2)c1C	inconclusive: 35.5 µM [activator, single point]	
O=C(OCc1csc(-c2ccccc2)n1)c1ccc(O)cc1		inactive: 1.97%
C=C[C@@](C)(O)CC[C@@H]1[C@@]2(C)CCCC(C)(C)[C@@H]2CC[C@@]1(C)O	inconclusive: 15.8 µM [activator, partial curve]	
O=C(COc1cc2oc(=O)cc(-c3ccccc3)c2cc1Cl)NCc1ccccn1	inconclusive: 8.91 µM [activator, partial curve]	
CC1CCN(c2ccccc2NC(=O)c2ccc(F)cc2)CC1	inconclusive: 31.6 µM [activator, single point]	
CCCCN1C(=O)/C(=C2\SC(N3CCCCC3)=NC2=O)c2ccccc21	inconclusive: 17.8 µM [activator, single point]	
Nc1cc(C(F)(F)F)ccc1Nc1ccccc1	inconclusive: 1.26 µM [activator, partial curve]	
CCCCc1ccc(NC(=O)CN(C)CC(=O)Nc2ccccc2Cl)cc1		inactive: -15.5%
O=C(NCCc1ccccc1)c1ccc(-c2ccccc2Cl)o1	inconclusive: 25.1 µM [activator, single point]	
